Test results as given in patent US6818741B2, “Alpha-fetoprotein peptides and uses therof” (CLF Medical Technology Acceleration Program, Inc., priority 2000, dated 2004).

Biological target: T1, estrogen receptor (Oryctolagus cuniculus, UniProt G1SML6)
T1 sequence (G1SML6 1-598): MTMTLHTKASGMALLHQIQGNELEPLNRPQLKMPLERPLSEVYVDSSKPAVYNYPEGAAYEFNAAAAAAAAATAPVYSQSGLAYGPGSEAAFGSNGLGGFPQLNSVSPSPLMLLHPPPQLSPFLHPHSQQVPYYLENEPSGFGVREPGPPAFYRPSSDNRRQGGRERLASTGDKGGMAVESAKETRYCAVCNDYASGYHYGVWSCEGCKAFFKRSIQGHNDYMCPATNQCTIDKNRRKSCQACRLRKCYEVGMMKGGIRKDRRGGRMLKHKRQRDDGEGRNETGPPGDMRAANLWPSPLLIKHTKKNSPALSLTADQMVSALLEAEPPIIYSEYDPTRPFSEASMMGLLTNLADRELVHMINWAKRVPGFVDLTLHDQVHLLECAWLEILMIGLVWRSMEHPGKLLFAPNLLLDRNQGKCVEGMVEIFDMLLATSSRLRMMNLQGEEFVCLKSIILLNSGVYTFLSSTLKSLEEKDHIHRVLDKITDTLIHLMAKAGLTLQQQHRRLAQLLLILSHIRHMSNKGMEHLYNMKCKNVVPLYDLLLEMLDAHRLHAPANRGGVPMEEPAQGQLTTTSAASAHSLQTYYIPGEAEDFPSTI
Experiment: Assessment of estrogen receptor antagonism ([3H]E2 binding, uterine cytosol)
Settings: [3H]E2, rabbit uterine cytosol; read-out: IC50, interference with E2 binding to ER
Protocol: Assessment of Estrogen Receptor Antagonism. Commercially obtained rabbit uteri (Pel-Freez Biological, Rogers, Ark.) were used as a source of estrogen receptor. […] Total count tubes received 20 μl of [^3H] estradiol and 180 μl of assay buffer.

SMILES: CC/C(=C(\c1ccccc1)c1ccc(OCCN(C)C)cc1)c1ccccc1 [tamoxifen, reference compound]
- IC50: 50 nM
